Consider one sequence from paper PMC6461687.

The exact form of at least one protein or probe is not confirmed.

The series deals with cardiac troponin T (cTnT). In words: electrical aptasensor (rGO relative resistance change). Conditions: response from 1 pg/mL to 10 ng/mL, 5'-amine, coupled to rGO via PBSE, 1x PBS pH 7.4 or 10-fold diluted human serum in 1x PBS, aptamer immobilized on rGO, ethanolamine blocked, binding temperature not stated, commercial protein, single-stranded DNA.

With “ATACGGGAGCCAACACCAGGACTAACATTATAAGAATTGCGAATAATCATTGGAGAGCAGGTGTGACGGAT [cTnT aptamer (OTC Biotech 091)]”, the binding result runs as follows: (1x PBS, LOD 1.2 pg/mL (not a Kd)) “binds”; (10-fold diluted human serum in 1x PBS, LOD 1.7 pg/mL (not a Kd)) “binds”.
